Experimental data as given in publication PMC9522596.
Results are given in words; binding and its absence hold for the method and conditions named. In cells and extracts the contact can be indirect. These calls come from enrichment with a bait or labelling near it, and not all partners need be listed.

Chains of the proteins cited; added tags and fusions are not shown.
UniProt Q9Y490: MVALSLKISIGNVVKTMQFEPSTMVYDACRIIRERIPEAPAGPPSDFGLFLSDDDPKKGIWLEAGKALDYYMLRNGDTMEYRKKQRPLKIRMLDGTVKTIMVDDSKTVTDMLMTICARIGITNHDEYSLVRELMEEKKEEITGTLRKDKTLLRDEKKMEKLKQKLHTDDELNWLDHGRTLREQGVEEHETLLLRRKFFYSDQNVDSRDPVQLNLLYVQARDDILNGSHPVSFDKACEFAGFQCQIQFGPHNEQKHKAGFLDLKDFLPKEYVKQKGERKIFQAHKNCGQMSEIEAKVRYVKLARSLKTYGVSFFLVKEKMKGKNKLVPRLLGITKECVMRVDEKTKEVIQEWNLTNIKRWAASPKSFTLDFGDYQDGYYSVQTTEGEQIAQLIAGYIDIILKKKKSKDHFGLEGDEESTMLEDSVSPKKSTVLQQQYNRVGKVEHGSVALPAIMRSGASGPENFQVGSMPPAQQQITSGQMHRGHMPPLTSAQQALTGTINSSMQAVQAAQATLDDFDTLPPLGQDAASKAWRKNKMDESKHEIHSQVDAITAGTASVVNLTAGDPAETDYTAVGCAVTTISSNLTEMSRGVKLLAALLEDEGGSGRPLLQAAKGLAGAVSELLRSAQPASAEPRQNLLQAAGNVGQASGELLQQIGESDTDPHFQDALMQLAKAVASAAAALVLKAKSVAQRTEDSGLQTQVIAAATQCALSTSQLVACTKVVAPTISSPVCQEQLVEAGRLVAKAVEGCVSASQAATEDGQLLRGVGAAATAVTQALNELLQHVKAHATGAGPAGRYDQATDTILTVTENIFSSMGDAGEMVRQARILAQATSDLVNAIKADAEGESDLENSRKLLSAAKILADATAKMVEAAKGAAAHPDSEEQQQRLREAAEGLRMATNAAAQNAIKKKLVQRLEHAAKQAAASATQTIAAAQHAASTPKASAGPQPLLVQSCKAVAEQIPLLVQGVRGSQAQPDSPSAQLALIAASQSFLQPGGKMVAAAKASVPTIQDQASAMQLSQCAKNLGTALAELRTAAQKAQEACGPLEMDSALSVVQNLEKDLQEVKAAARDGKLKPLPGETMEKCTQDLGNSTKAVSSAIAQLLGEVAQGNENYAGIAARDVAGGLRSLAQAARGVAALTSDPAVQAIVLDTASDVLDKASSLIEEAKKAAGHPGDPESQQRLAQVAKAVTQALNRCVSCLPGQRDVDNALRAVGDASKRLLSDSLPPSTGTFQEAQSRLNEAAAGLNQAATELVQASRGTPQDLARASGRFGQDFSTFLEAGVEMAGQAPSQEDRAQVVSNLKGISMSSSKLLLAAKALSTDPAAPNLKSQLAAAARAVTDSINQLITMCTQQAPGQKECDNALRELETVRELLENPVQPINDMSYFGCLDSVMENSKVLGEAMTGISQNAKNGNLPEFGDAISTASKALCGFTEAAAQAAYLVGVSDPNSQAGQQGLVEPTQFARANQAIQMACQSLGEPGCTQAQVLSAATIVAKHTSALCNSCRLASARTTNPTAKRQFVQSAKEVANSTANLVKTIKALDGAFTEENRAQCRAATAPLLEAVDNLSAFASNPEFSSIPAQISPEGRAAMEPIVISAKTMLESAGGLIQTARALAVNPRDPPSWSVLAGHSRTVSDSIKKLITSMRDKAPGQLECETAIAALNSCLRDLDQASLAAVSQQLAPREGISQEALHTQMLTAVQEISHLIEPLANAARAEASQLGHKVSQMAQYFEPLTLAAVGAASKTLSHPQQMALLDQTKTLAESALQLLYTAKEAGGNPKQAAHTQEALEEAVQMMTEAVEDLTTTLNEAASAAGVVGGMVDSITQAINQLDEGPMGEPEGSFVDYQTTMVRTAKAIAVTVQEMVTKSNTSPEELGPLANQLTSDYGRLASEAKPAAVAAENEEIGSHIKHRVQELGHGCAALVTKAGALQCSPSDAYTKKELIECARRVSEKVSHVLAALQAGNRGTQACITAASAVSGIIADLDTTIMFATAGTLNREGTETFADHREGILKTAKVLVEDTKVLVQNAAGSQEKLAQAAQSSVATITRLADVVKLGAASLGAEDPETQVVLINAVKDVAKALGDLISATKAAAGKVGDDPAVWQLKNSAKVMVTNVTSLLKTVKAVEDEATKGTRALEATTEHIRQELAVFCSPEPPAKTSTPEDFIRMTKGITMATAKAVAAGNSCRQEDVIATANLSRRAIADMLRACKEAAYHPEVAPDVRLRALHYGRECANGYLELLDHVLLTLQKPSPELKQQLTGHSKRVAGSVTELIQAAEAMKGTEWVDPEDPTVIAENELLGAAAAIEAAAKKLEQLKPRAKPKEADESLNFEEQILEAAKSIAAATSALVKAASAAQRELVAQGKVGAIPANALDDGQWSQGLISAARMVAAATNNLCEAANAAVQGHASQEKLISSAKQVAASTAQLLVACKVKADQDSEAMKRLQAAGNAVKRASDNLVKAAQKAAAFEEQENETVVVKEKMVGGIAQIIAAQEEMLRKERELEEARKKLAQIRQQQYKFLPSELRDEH
UniProt Q86UX7: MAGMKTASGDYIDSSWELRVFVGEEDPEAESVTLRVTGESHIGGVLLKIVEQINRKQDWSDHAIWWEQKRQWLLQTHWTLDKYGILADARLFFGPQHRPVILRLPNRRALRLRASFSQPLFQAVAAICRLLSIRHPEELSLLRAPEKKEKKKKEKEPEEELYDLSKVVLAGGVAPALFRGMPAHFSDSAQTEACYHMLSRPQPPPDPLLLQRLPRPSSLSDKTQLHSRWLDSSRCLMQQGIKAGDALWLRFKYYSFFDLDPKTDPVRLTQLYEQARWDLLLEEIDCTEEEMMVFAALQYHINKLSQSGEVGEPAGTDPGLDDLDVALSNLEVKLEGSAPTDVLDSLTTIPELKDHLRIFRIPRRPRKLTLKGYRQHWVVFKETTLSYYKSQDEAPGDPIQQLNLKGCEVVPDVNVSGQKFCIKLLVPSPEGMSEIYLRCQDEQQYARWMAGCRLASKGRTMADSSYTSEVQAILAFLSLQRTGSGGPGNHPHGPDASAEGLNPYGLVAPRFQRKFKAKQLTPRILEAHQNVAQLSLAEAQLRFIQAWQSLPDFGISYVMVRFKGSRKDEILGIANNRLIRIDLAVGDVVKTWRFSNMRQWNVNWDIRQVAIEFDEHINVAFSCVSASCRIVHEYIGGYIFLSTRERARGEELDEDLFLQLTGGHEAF
UniProt Q14289: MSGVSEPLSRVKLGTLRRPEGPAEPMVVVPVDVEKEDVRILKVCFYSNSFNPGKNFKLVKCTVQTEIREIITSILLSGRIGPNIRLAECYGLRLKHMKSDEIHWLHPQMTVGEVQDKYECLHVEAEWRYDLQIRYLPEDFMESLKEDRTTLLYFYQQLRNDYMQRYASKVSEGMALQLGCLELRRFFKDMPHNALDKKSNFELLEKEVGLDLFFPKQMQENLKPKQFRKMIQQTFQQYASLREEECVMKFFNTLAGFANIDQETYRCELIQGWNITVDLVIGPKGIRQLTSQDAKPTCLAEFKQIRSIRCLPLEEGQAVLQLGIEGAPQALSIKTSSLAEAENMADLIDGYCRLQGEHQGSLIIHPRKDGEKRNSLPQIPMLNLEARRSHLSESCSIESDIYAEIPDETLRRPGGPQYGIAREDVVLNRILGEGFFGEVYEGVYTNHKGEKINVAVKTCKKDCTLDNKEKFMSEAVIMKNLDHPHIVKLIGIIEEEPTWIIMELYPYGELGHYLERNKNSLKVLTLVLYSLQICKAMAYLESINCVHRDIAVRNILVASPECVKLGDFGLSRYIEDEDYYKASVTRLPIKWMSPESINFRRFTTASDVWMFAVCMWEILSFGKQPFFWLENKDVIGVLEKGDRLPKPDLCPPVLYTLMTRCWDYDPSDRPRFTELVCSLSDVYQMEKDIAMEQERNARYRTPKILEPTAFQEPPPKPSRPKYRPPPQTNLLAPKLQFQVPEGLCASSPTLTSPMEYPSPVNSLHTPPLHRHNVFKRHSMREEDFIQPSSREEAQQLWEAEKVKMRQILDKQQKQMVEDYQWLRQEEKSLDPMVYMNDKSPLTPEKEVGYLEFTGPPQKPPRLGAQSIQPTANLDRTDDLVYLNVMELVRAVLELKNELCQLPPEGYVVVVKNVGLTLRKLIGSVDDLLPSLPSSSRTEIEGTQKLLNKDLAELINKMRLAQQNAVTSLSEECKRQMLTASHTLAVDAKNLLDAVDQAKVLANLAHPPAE

These substances were tested against T1, leupaxin (LPXN) (human (endogenous in MV4-11, MV4-11R and OCI-AML3)) (UniProt O60711) (assay: affinity purification with mass spectrometry; co-immunoprecipitation of endogenous LPXN with two LPXN antibodies (Abcam, LSBio) on Dynabeads Protein G from MV4-11 WT, MV4-11R and OCI-AML3 cells; proteins crosslinked with 3 mM DSS for 30 min at room temperature; elution in 6 M urea buffer; IgG IP as control).
T1 sequence: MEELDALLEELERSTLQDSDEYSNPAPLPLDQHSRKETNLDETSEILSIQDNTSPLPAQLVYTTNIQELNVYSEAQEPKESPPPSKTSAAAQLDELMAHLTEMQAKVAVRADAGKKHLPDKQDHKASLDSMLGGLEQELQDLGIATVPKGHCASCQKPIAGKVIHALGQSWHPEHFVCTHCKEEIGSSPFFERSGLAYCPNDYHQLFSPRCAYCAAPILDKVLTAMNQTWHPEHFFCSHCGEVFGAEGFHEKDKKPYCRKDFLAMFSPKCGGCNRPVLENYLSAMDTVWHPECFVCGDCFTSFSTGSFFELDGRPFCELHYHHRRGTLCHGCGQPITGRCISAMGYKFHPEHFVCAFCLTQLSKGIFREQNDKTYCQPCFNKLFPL

Row | binding | Substance
1 | binds | talin-1 (TLN1) (from UniProt Q9Y490 1-2541)
2 | binds | fermitin family homolog 3 (FERMT3) (from UniProt Q86UX7 1-667)
3 | binds | Proline-rich tyrosine kinase 2 (PTK2B/PYK2) (from UniProt Q14289 1-1009) (enzyme)
